From patent US7417034B2, “Pharmaceutically active uridine esters” (Trommsdorff GmbH & Co. KG Arzeneimittel, priority 2001, dated 2008)
Some entries share one result that the patent states for a list of compounds. At least one structure is not confirmed: it was looked up by name or label, or the drawing left a doubt. Some compounds share one range, which may span the group rather than tell each member.

System: hippocampal pyramid cells
Experiment: in-vitro Hippocampus cuts: glucose-induced over-sensitiveness of pyramid cells (population spike)
Assay type: cell-based, rats
Details: rat Hippocampus cuts, 30 mM glucose, amplitude of population spike; read-out: calculated IC50-value, reduction of glucose-induced over-sensitiveness
Description: The model used to determine the effect of the compounds of the present invention on treating diabetes and/or polyneuropathy comprises the use of in-vitro Hippocampus cuts for detecting the over-sensitiveness of pyramid cells due to the enhancement of the glucose concentration. Said over-sensitiveness could be antagonized dose-dependent by the use of a compound of the general formula (I).
The Hippocampus cuts of rats present a validated model for determination of interaction between a drug substance which is in direct contact with neuronal tissue. The interaction between a pharmaceutically active compound and the brain tissue can be examined directly, because of the maintenance of the three dimensional structure of the tissue within the in-vitro Hippocampus cut. Said compounds act on a special population of nerve cells, the pyramid cells of the Hippocampus. It is known that the synapse between pyramid cells and Schaffer-collaterals (which can be electrically stimulated) use the neurotransmitter glutamate for the process of signal transduction. The result of the electric stimulation, the so called population spike, represents the amount of activated pyramid cells. Other known models allow the in-vitro determination of a neuronal network only within a time frame of up to 8 hours. The advantage of this model is that neuronal network can be analyzed in-vitro over a much longer period after chemical or electric provocation of the cells. The cells are brought to an elevated level of stimulation which allows a long term measurement of pharmacologically active compounds under patho-physiologic conditions (W. Dimpfel et al., Antimicrobial Agents and Chemotherapy 1991, 1142-1146; W. Dimpfel et al., Eur. J. Med. Res. 1996, 1, 523-527). […]
The experiment was carried out in a so called “Base Unit with Haas Top” (Medical Systems Corporation, U.S.A.) at a temperature of 35° C. according to the protocol of H. L. Haas and R. W. Greene (Neurotransmitter and cortical function; ed. M. Avoli, T. A. Reader, R. W. Dykes and P. Gloor, pp. 483-494, Plenum Publishing Corp.). […]

SMILES | IC50 [µM]
O=C(CCCCC(S)CCS)OC[C@H]1O[C@@H](n2ccc(=O)[nH]c2=O)[C@H](O)[C@@H]1O (stereo partly drawn) [Compound 5′, (2′R,3′S,4′R,5′R)-6,8-Dimercapto-octanoic acid 5′-(2,4-dioxo-3,4-dihydro-2H-pyrimidine-1-yl)-3′,4′-dihydroxy-tetrahydrofuran-2′-ylmethyl ester] | 4 to 8
O=C(CCCC[C@@H]1CCSS1)OC[C@H]1O[C@@H](n2ccc(=O)[nH]c2=O)[C@H](O)[C@@H]1O [Compound R-5, (2′R,3R,3′S,4′R,5′R)-5-[1,2]Dithiolan-3-yl-pentanoic acid 5′-(2,4-dioxo-3,4-dihydro-2H-pyrimidine-1-yl)-3′,4′-dihydroxy-tetrahydrofuran-2′-ylmethyl ester] | 4 to 8
O=C(CCCC[C@H]1CCSS1)OC[C@H]1O[C@@H](n2ccc(=O)[nH]c2=O)[C@H](O)[C@@H]1O [Compound S-5, (2′R,3S,3′S,4′R,5′R)-5-[1,2]Dithiolan-3-yl-pentanoic acid 5′-(2,4-dioxo-3,4-dihydro-2H-pyrimidine-1-yl)-3′,4′-dihydroxy-tetrahydrofuran-2′-ylmethyl ester] | 4 to 8
